Assay results taken from US20200040401A1 (KAOHSIUNG MEDICAL UNIVERSITY, published 2020).
Results are given in words; binding and its absence hold for the method and conditions named. Binding seen in cells or lysates may run through a third protein. Some entries that bind do so weakly or less than the wild type. For some assays here: Sequences can lack the tags named with a protein.

Protein sequences, listed by entry. Tags and fused reporters are not part of them. Lines headed by an entry give the natural chain unless they say otherwise; changes in a name come on top.
UniProt Q7TMY8: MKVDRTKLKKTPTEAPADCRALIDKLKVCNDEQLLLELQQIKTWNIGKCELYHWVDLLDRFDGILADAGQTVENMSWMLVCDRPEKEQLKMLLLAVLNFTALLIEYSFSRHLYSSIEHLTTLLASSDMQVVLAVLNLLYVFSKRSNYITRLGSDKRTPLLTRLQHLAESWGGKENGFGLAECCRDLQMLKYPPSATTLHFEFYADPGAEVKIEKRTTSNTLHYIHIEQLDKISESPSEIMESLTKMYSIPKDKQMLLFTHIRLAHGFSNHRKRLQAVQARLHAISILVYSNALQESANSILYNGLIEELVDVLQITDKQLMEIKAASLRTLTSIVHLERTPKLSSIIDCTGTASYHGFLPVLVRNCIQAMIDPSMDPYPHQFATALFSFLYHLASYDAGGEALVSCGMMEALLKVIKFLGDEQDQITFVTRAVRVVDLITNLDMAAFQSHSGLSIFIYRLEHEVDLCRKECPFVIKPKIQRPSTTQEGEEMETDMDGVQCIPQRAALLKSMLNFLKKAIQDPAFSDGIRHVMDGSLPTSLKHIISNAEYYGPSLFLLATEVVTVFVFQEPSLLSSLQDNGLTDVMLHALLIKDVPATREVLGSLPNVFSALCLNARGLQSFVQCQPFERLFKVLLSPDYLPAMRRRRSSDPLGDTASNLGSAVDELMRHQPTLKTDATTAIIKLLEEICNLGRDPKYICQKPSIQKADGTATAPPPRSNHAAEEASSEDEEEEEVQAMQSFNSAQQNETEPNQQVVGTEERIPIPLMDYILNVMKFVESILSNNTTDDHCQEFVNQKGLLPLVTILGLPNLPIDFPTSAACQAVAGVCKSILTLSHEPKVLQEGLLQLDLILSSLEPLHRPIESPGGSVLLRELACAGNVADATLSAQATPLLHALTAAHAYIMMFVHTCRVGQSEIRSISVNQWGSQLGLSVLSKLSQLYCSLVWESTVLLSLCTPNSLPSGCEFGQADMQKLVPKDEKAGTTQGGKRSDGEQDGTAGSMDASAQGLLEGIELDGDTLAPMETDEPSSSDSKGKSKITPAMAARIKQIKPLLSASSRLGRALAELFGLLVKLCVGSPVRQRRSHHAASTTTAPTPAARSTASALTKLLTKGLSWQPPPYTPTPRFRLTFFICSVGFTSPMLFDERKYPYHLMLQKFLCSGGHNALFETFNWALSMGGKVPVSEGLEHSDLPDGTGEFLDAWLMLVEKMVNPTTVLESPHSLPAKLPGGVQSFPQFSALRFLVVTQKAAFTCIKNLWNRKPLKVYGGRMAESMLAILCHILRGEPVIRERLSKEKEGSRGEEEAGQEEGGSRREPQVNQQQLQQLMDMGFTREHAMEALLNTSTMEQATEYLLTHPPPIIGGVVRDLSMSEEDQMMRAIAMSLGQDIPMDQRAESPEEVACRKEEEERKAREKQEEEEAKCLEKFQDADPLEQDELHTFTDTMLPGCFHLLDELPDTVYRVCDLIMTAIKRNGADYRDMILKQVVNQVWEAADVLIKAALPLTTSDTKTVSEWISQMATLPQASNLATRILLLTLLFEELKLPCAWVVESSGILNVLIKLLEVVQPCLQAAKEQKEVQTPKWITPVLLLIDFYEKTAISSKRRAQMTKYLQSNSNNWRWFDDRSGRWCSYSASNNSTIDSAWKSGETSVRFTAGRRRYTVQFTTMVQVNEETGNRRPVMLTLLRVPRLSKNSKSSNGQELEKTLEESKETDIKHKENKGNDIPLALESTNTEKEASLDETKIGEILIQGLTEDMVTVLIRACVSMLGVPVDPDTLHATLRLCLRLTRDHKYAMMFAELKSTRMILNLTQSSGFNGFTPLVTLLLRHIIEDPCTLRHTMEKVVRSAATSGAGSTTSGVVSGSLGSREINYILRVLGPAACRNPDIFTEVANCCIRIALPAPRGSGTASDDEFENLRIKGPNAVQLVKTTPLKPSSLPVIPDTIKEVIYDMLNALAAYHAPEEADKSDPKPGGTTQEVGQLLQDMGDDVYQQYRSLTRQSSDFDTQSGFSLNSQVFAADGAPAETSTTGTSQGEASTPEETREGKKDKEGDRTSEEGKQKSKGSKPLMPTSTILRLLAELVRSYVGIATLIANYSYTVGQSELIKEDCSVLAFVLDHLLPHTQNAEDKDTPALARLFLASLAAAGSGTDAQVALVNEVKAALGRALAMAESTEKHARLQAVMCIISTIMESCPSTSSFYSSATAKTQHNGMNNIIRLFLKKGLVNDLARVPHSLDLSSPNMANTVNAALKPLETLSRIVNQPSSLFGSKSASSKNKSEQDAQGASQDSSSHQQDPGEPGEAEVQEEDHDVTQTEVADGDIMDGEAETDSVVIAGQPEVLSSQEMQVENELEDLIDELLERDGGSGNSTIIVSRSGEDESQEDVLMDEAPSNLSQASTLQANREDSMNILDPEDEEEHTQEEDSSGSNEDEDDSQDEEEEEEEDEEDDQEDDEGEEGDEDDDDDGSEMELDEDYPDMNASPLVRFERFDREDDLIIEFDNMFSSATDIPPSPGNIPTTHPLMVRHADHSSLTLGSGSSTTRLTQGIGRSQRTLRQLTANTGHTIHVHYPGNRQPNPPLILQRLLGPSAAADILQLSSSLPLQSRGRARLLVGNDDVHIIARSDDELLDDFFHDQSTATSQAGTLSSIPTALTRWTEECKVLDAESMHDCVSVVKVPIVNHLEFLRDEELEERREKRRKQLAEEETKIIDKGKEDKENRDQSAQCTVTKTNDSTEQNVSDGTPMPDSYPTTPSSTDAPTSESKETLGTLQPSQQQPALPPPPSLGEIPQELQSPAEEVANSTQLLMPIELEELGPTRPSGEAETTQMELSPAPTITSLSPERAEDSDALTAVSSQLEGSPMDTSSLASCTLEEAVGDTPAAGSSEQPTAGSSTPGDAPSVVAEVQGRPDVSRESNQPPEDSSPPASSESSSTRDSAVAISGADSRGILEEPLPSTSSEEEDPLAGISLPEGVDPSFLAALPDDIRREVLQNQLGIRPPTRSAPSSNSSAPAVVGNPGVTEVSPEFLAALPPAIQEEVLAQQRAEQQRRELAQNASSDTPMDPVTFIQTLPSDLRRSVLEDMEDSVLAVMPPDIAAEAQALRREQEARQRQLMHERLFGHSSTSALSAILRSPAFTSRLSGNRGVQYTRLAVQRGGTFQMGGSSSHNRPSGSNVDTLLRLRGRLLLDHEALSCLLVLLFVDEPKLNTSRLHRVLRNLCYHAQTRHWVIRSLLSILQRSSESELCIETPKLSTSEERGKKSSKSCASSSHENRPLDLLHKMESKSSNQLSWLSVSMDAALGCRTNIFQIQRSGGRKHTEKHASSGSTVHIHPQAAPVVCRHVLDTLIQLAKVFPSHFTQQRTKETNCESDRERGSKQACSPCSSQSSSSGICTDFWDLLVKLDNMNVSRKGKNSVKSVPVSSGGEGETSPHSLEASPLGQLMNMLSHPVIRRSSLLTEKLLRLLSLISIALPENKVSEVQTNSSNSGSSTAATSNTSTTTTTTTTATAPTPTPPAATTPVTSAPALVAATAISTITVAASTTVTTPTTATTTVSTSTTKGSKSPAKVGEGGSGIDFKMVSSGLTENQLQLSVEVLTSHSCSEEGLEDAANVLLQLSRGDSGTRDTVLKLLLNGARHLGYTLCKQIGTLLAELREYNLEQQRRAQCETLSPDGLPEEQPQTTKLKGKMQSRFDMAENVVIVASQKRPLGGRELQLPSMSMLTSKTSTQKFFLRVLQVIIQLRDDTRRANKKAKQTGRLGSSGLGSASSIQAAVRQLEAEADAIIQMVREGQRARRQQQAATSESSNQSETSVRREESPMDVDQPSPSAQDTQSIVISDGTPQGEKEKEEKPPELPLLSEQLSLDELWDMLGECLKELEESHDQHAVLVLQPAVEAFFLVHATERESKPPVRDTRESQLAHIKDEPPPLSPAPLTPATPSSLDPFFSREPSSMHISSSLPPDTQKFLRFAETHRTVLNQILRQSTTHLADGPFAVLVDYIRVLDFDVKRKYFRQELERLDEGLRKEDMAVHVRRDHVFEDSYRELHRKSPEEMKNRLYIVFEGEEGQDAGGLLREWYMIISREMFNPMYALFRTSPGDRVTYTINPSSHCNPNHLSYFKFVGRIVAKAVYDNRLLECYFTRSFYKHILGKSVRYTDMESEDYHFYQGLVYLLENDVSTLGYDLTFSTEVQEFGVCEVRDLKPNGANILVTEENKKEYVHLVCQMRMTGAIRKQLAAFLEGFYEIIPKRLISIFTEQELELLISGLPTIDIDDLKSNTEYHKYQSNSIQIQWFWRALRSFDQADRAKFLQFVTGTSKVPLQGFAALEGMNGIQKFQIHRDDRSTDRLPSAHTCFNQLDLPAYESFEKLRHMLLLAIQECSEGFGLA

Experiments:
[1] = biological target: phosphatidylinositol 3,4,5-trisphosphate Rac exchange factor 2 (PREX2) (UniProt Q70Z35); assay: co-IP with and without co-expressed GNMT
[2] = biological target: phosphatidylinositol 3,4,5-trisphosphate Rac exchange factor 2 (PREX2) (UniProt Q70Z35); assay: co-IP
[3] = biological target: phosphatidylinositol 3,4,5-trisphosphate Rac exchange factor 2 (PREX2) (UniProt Q70Z35); assay: co-IP and immunoblot, Huh7-GNMT stable cells (FIG. 1A)
[4] = biological target: phosphatidylinositol 3,4,5-trisphosphate Rac exchange factor 2 (PREX2) (UniProt Q70Z35); assay: reciprocal co-IP, lysates of HEK293T cells co-transfected with PREX2 and GNMT plasmids
[5] = biological target: T1, His-Myc-tagged PDZ domains of PREX2 (UniProt Q70Z35); assay: in vitro pull-down with purified proteins
T1 sequence (looked up): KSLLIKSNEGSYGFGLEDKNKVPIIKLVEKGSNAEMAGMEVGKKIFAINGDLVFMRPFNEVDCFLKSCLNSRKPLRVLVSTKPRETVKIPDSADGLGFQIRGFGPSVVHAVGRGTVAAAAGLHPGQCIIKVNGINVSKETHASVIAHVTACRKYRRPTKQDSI

In the case of “homologous to E6AP carboxyl terminus homologous protein 9 (HectH9) (from UniProt Q7TMY8 1-4377 at identity 1.00)) (enzyme)”, the binding [1] is reported as “binds” and the binding [2] is reported as “binds”.

B1: glycine-N-methyltransferase (GNMT) (enzyme)
chain: VDSVYRTRSLGVAAEGLPDQYADGEAARVWQLYIGDTRSRTAEYKAWLLGLLRQHGCQRVLDVACGTGVDSIMLVEEGFSVTSVDASDKMLKYALKERWNRRHEPAFDKWVIEEANWMTLDKDVPQSAEGGFDAVICLGNSFAHLPDCKGDQSEHRLALKNIASMVRAGGLLVIDHRNYDHILSTGCAPPGKNIYYKSDLTKDVTTSVLIVNNKAHMVTLDYTVQVPGAGQDGSPGLSKFRLSYYPHCLASFTELLQAAFGGKCQHSVLGDFKPYKPGQTYIPCYFIHVLKRTD
For B1, the binding [3] was “binds” and the binding [4] was “binds”.

B2: purified GST-GNMT (enzyme, not shown: a dimerising Fc or GST)
chain: MVDSVYRTRSLGVAAEGLPDQYADGEAARVWQLYIGDTRSRTAEYKAWLLGLLRQHGCQRVLDVACGTGVDSIMLVEEGFSVTSVDASDKMLKYALKERWNRRHEPAFDKWVIEEANWMTLDKDVPQSAEGGFDAVICLGNSFAHLPDCKGDQSEHRLALKNIASMVRAGGLLVIDHRNYDHILSTGCAPPGKNIYYKSDLTKDVTTSVLIVNNKAHMVTLDYTVQVPGAGQDGSPGLSKFRLSYYPHCLASFTELLQAAFGGKCQHSVLGDFKPYKPGQTYIPCYFIHVLKRTD
B2 was tested, and the binding [5] was “binds”.
